Laboratory results reported in patent publication US20260216103A1, “USE OF LONG-ACTING ß2AR AGONIST IN PREPARATION OF DRUGS FOR TREATING CANCERS” (HONG KONG SXMETEROL PHARMACEUTICAL CO., LIMITED, priority 2023, published 2026).
Structures can show the parent of a compound that is named as a salt.

System: cancer stem cells of 17 cancers
Assay: tumor sphere formation assays of cancer cells, summary over 17 cancers
Type: cell-based
Conditions: summary of Examples 1-9; agonist used alone
Excerpt: As a gold standard for detecting the self-renewal capability of cancer stem cells in vitro, a tumor sphere formation assay may detect individual cancer stem cell that continuously self-renew in a conditioned medium and form tumor spheres consisting of multiple cells. This in vitro experiment is often used to test the responsiveness of clinical patients to anticancer drugs, and guide in vivo medication of the clinical patients.
Cancer stem cells have self-renewal capability, which determines the initiation and progression of cancers. As a gold standard for detecting the self-renewal capability of cancer stem cells in vitro, a tumor sphere formation assay may detect individual cancer stem cells that continuously self-renew in a conditioned medium and form tumor spheres consisting of multiple cells.

COc1ccc(C[C@@H](C)NC[C@H](O)c2ccc(O)c(NC=O)c2)cc1 [arformoterol tartrate]
self-renewal capability of cancer stem cells: can significantly inhibit the self-renewal capability of cancer stem cells of 17 cancers
